For one molecule, binding results are on record in publication PMC9206271.

The chains behind the UniProt entries cited, without tags or fusion partners.
UniProt Q13435: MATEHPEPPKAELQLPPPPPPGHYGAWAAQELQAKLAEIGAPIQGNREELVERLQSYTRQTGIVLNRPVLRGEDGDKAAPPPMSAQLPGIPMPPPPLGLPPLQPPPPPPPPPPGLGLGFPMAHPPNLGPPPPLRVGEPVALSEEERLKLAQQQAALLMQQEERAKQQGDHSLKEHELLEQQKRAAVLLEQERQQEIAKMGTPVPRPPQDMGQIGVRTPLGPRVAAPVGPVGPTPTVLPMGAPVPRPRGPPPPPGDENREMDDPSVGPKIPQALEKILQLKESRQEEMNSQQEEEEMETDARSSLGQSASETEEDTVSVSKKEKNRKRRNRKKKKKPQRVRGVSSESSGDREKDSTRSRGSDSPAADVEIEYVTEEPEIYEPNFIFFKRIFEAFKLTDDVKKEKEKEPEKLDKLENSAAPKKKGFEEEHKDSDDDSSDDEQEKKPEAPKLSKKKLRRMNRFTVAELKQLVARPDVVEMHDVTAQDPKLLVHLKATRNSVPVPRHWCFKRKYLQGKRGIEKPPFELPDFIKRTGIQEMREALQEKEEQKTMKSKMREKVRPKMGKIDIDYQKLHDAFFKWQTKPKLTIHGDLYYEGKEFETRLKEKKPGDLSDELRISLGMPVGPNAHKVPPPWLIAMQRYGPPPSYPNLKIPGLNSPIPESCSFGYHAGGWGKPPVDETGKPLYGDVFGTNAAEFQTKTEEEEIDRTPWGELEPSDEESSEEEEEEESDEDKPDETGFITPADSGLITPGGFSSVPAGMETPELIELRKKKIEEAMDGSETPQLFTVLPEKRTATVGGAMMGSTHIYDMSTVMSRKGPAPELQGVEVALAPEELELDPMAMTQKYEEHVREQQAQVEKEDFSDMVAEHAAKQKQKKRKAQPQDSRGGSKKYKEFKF

No constants are given. Whether binding was seen depends on the method and setting. In cells and extracts the contact can be indirect. A yes stands for co-enrichment or nearness to the bait. Other partners may have been found.

For this assay, the target named is SF3B2-TAP (splicing factor 3b subunit 2 with a tandem affinity purification tag) (UniProt Q13435). Description: affinity purification with mass spectrometry; SF3B2-TAP complex purified by tandem affinity purification from nuclear extracts of FaDu cells stably expressing SF3B2-TAP (GFP-TAP as control); SDS-PAGE, silver staining, bands excised, in-gel trypsin digest, LC/MS-MS; three independent experiments.

B1: structural maintenance of chromosomes 1A (SMC1A) (protein, UniProt Q14683 1-1233)
chain: MGFLKLIEIENFKSYKGRQIIGPFQRFTAIIGPNGSGKSNLMDAISFVLGEKTSNLRVKTLRDLIHGAPVGKPAANRAFVSMVYSEEGAEDRTFARVIVGGSSEYKINNKVVQLHEYSEELEKLGILIKARNFLVFQGAVESIAMKNPKERTALFEEISRSGELAQEYDKRKKEMVKAEEDTQFNYHRKKNIAAERKEAKQEKEEADRYQRLKDEVVRAQVQLQLFKLYHNEVEIEKLNKELASKNKEIEKDKKRMDKVEDELKEKKKELGKMMREQQQIEKEIKEKDSELNQKRPQYIKAKENTSHKIKKLEAAKKSLQNAQKHYKKRKGDMDELEKEMLSVEKARQEFEERMEEESQSQGRDLTLEENQVKKYHRLKEEASKRAATLAQELEKFNRDQKADQDRLDLEERKKVETEAKIKQKLREIEENQKRIEKLEEYITTSKQSLEEQKKLEGELTEEVEMAKRRIDEINKELNQVMEQLGDARIDRQESSRQQRKAEIMESIKRLYPGSVYGRLIDLCQPTQKKYQIAVTKVLGKNMDAIIVDSEKTGRDCIQYIKEQRGEPETFLPLDYLEVKPTDEKLRELKGAKLVIDVIRYEPPHIKKALQYACGNALVCDNVEDARRIAFGGHQRHKTVALDGTLFQKSGVISGGASDLKAKARRWDEKAVDKLKEKKERLTEELKEQMKAKRKEAELRQVQSQAHGLQMRLKYSQSDLEQTKTRHLALNLQEKSKLESELANFGPRINDIKRIIQSREREMKDLKEKMNQVEDEVFEEFCREIGVRNIREFEEEKVKRQNEIAKKRLEFENQKTRLGIQLDFEKNQLKEDQDKVHMWEQTVKKDENEIEKLKKEEQRHMKIIDETMAQLQDLKNQHLAKKSEVNDKNHEMEEIRKKLGGANKEMTHLQKEVTAIETKLEQKRSDRHNLLQACKMQDIKLPLSKGTMDDISQEEGSSQGEDSVSGSQRISSIYAREALIEIDYGDLCEDLKDAQAEEEIKQEMNTLQQKLNEQQSVLQRIAAPNMKAMEKLESVRDKFQETSDEFEAARKRAKKAKQAFEQIKKERFDRFNACFESVATNIDEIYKALSRNSSAQAFLGPENPEEPYLDGINYNCVAPGKRFRPMDNLSGGEKTVAALALLFAIHSYKPAPFFVLDEIDAALDNTNIGKVANYIKEQSTCNFQAIVISLKEEFYTKAESLIGVYPEQGDCVISKVLTFDLTKYPDANPNPNEQ
On to B1, for which the binding entry is listed as “binds”.
